From paper PMC5006984

Tests used:
[1] = molecular target: T1, human MICB (human) (UniProt Q29980); test: co-IP; anti-MICB mAb immunoprecipitation from lysates of U373-MICB cells (RhCMV-infected or adenovector-transduced, 24 h) pulse-labelled 30 min with [35S]cysteine/[35S]methionine and chased 0-3 h; with or without EndoH; SDS-PAGE and autoradiography
T1 sequence: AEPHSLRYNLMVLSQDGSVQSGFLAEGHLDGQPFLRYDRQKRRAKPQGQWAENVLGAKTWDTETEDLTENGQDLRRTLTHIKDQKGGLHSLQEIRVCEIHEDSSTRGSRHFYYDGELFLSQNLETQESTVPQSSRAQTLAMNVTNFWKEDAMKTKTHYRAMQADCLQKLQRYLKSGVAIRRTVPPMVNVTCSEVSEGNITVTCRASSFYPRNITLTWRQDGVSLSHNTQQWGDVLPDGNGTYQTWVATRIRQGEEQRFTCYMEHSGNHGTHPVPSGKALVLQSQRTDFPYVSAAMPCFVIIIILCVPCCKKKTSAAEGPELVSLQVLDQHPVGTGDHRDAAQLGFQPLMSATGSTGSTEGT

[2] = molecular target: T1, human MICB (human); test: co-IP; U373-MICB or U373-ULBP3 cells lysed 48 h post-transduction with AdRh159FL or FLAG-SVV ORF 61 adenovector; immunoprecipitation with anti-MICB or anti-ULBP3 antibodies, immunoblot with anti-FLAG mAb
[3] = molecular target: T2, human ULBP3 (human) (UniProt Q9BZM5); test: as above
T2 sequence: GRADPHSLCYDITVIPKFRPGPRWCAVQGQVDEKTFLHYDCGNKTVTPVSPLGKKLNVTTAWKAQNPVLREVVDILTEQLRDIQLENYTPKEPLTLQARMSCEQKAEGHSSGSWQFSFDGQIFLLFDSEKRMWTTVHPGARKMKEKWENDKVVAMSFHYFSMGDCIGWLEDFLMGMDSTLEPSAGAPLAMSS

Substance | binding [1] | binding [2] | binding [3]
RhCMV Rh159 (expressed from RhCMV 68-1 in infected cells) | binds | – | –
FLAG-tagged Simian varicella virus (SVV) open reading frame (ORF) 61 | – | no binding | no binding
FLAG-tagged Rh159 (AdRh159FL) (rhesus cytomegalovirus (RhCMV)) | binds | binds | no binding

Results are given in words; binding and its absence hold for the method and conditions named. Binding seen in cells or lysates may run through a third protein. For part of these data: Binding can be weak; no strength is given.
